Data on 14 compounds can be found in PubChem BioAssay AID270 (DTP/NCI, 2004).

The experiment concerns BDF1 mice, s.c. Lewis lung carcinoma, T/C %. Nature of the experiment: NCI In Vivo Anticancer Drug Screen. Data for tumor model Lewis Lung Carcinoma (subcutaneous) in B6D2F1 (BDF1) mice. An outline of the steps:
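The value reflects a ratio in which the treated cohort's survival time or tumour size is compared against mice receiving only vehicle.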

[1] abbreviates: T/C endpoint: median survival time, dose: 50.0 mg/kg/injection, schedule: Q01DX001 (ip), vehicle: Klucel (hydroxypropylcellulose) (HPC), higher T/C = longer survival.
Where [2] appears, read: T/C endpoint: median survival time, dose: 160.0 mg/kg/injection, schedule: Q01DX001 (ip), vehicle: Klucel (hydroxypropylcellulose) (HPC), higher T/C = longer survival.
Setting [3] is: T/C endpoint: median survival time, dose: 32.0 mg/kg/injection, schedule: Q01DX009 (ip), vehicle: saline, higher T/C = longer survival.

Each structure is given as a SMILES string. The list does not hold the whole screen: it is rich in T/C values a quarter to a half above the control, in often repeated tests (any T/C) and in doses without a T/C. Other doses and runs of a compound stand elsewhere. T/C gives the treated animals as a percentage of the vehicle group. Schedule codes are those of the source, read here as Q, the interval in days (D) or hours (H), X, the number of doses. Some entries give survivors of the animals treated and no T/C: the source holds a T/C of zero for them, seemingly a mark for toxic or unscored doses. Some survivor counts are full or nearly so, which does not show that the dose was tolerated: the source hardly ever lists a survival T/C far under the control, and the zero likely stands for such cases as well. Survivors were counted at the toxicity check, usually on the fifth day, unless a day is given; later deaths do not show. Brackets with × say how often a value occurs here. Some entries were tested several times; the values are given in rising order. Where survival is the endpoint, this PubChem deposit counts one and a half times the control or more as active, and values a quarter to a half above the control carry no call in these data; other NCI protocols may use other cut-offs. Some T/C values are followed by the survivors on the day toxicity was checked, most often the fifth; without a count, all were alive then.

`O=NN(CCCl)C(=O)NC1CCCCC1`: the T/C by setting is: (T/C endpoint: median survival time, dose: 0.12 mg/kg/injection, schedule: Q08HX024 (ip), vehicle: Klucel (hydroxypropylcellulose) (HPC), higher T/C = longer survival) 128 % of control [9 of 10 alive]; (T/C endpoint: median survival time, dose: 1.0 mg/kg/injection, schedule: Q01DX009 (ip), vehicle: Klucel (hydroxypropylcellulose) (HPC), higher T/C = longer survival) 133 % of control; (T/C endpoint: median survival time, dose: 2.0 mg/kg/injection, schedule: Q01DX009 (ip), vehicle: Klucel (hydroxypropylcellulose) (HPC), higher T/C = longer survival) 142 % of control; (T/C endpoint: median survival time, dose: 4.0 mg/kg/injection, schedule: Q01DX009 (ip), vehicle: Klucel (hydroxypropylcellulose) (HPC), higher T/C = longer survival) 86, 107, 108, 117 % of control; (T/C endpoint: median survival time, dose: 8.0 mg/kg/injection, schedule: Q01DX009 (ip), vehicle: Klucel (hydroxypropylcellulose) (HPC), higher T/C = longer survival) 90, 110, 157, 182 % of control; (T/C endpoint: median survival time, dose: 16.0 mg/kg/injection, schedule: Q01DX009 (ip), vehicle: Klucel (hydroxypropylcellulose) (HPC), higher T/C = longer survival) 86, 87 [9 of 10 alive], 103, 131 % of control. In addition, the T/C reads like this: (T/C endpoint: median survival time, dose: 16.0 mg/kg/injection, schedule: Q01DX009 (ip), vehicle: saline with Tween-80, higher T/C = longer survival) 141 % of control; (T/C endpoint: median survival time, dose: 25.0 mg/kg/injection, schedule: Q01DX001 (ip), vehicle: Klucel (hydroxypropylcellulose) (HPC), higher T/C = longer survival) 136 % of control; (T/C endpoint: median survival time, dose: 25.0 mg/kg/injection, schedule: Q01DX001 (ip), vehicle: saline with Tween-80, higher T/C = longer survival) 135 % of control; (T/C endpoint: median survival time, dose: 32.0 mg/kg/injection, schedule: Q01DX009 (ip), vehicle: saline with Tween-80, higher T/C = longer survival) 125 % of control; (T/C endpoint: median survival time, dose: 40.0 mg/kg/injection, schedule: Q01DX001 (ip), vehicle: Klucel (hydroxypropylcellulose) (HPC), evaluated on day 14, higher T/C = longer survival) 92 % of control [6 of 8 alive]; (T/C endpoint: median survival time, dose: 40.0 mg/kg/injection, schedule: Q01DX001 (ip), vehicle: Klucel (hydroxypropylcellulose) (HPC), evaluated on day 60, higher T/C = longer survival) 95, 109, 117 % of control. In addition, the T/C reads like this: under setting [1], 147 % of control; (T/C endpoint: median survival time, dose: 50.0 mg/kg/injection, schedule: Q01DX001 (ip), vehicle: saline with Tween-80, higher T/C = longer survival) 135 % of control; under setting [2], 127 % of control. Moreover, the survivor count reads like this: (T/C endpoint: median survival time, dose: 1.0 mg/kg/injection, schedule: Q08HX024 (ip), vehicle: Klucel (hydroxypropylcellulose) (HPC), higher T/C = longer survival) 10 of 10; (T/C endpoint: median survival time, dose: 20.0 mg/kg/injection, schedule: Q01DX001 (ip), vehicle: Klucel (hydroxypropylcellulose) (HPC), higher T/C = longer survival) 10 of 10; (T/C endpoint: median survival time, dose: 32.0 mg/kg/injection, schedule: Q01DX009 (ip), vehicle: Klucel (hydroxypropylcellulose) (HPC), higher T/C = longer survival) 8 of 10 and 9 of 9; (T/C endpoint: median survival time, dose: 33.0 mg/kg/injection, schedule: Q10DX002 (ip), vehicle: carboxymethylcellulose (CMC), higher T/C = longer survival) 10 of 10 on day 15; under setting [1], 0 of 10; (T/C endpoint: median survival time, dose: 80.0 mg/kg/injection, schedule: Q01DX001 (ip), vehicle: Klucel (hydroxypropylcellulose) (HPC), higher T/C = longer survival) 10 of 10. Further, the survivor count runs as follows: (T/C endpoint: median survival time, dose: 100.0 mg/kg/injection, schedule: Q01DX001 (ip), vehicle: Klucel (hydroxypropylcellulose) (HPC), higher T/C = longer survival) 0 of 10 and 9 of 10; under setting [2], 10 of 10.

In the case of `Cc1ccc(Oc2ccc3cc[n+](C)cc3c2)cc1`, the survivor count (T/C endpoint: median survival time, dose: 25.0 mg/kg/injection, schedule: Q01DX009 (ip), vehicle: saline, higher T/C = longer survival) is 0 of 10.

Regarding `CC(=O)c1c(O)c(C)c(O)c2c1OC1=CC(=O)C(C(C)=O)C(=O)C12C` (centres undefined), the T/C (T/C endpoint: median survival time, dose: 12.5 mg/kg/injection, schedule: Q01DX009 (ip), vehicle: gum acacia, higher T/C = longer survival) was 132 % of control.

For the compound `Cc1ccc(N2CCN(CCCN3CCN(c4ccccc4Cl)CC3)CC2)cc1`, the survivor count (T/C endpoint: mean tumor weight, dose: 180.0 mg/kg/injection, schedule: Q01DX011 (ip), vehicle: carboxymethylcellulose (CMC), higher T/C = larger tumour) was 0 of 6.

In the case of `O=C1C=CC2(CCC23C=CC(=O)O3)O1` (centres undefined), the T/C (T/C endpoint: mean tumor weight, dose: 20.0 mg/kg/injection, schedule: Q01DX011 (ip), vehicle: saline, evaluated on day 12, higher T/C = larger tumour) was 131 % of control. Further, the survivor count is, setting by setting: (T/C endpoint: mean tumor weight, dose: 100.0 mg/kg/injection, schedule: Q01DX011 (ip), vehicle: saline, higher T/C = larger tumour) 0 of 6; (T/C endpoint: mean tumor weight, dose: 150.0 mg/kg/injection, schedule: Q01DX011 (ip), vehicle: saline, higher T/C = larger tumour) 0 of 6.

Turning to `CC(=O)OCC1CCC(NC(=O)N(CCCl)N=O)CC1` (centres undefined), the survivor count (T/C endpoint: median survival time, dose: 60.0 mg/kg/injection, schedule: Q01DX001 (ip), vehicle: Klucel (hydroxypropylcellulose) (HPC), higher T/C = longer survival) was 10 of 10 on day 11.

Consider `Cc1nn(-c2ccccc2)c(N)c1C#N`, for which the survivor count (T/C endpoint: median survival time, dose: 50.0 mg/kg/injection, schedule: Q01DX009 (ip), vehicle: other, higher T/C = longer survival) is 10 of 10.

With `N#C/C(=C\c1ccncc1)c1csc2ccccc12`, the survivor count (T/C endpoint: median survival time, dose: 200.0 mg/kg/injection, schedule: Q01DX009 (ip), vehicle: Klucel (hydroxypropylcellulose) (HPC), higher T/C = longer survival) is recorded as 10 of 10.

In the case of `Cc1c(N)nc([C@H](CC(N)=O)NC[C@H](N)C(N)=O)nc1C(=O)N[C@H](C(=O)N[C@H](C)[C@@H](O)[C@H](C)C(=O)N[C@H](C(=O)NCCc1nc(-c2nc(C(=O)NCCC[S+](C)C)cs2)cs1)[C@@H](C)O)C(OC1OC(CO)C(O)C(O)C1OC1OC(CO)C(O)C(OC(N)=O)C1O)c1cnc[nH]1` (some centres undefined), the T/C is 125 and 126 % of control (T/C endpoint: median survival time, dose: 2.0 mg/kg/injection, schedule: Q01DX009 (ip), vehicle: saline, higher T/C = longer survival); 133 % of control (T/C endpoint: median survival time, dose: 2.0 mg/kg/injection, schedule: Q01DX009 (ip), vehicle: water, higher T/C = longer survival); 127 % of control (T/C endpoint: median survival time, dose: 4.0 mg/kg/injection, schedule: Q01DX009 (ip), vehicle: saline, evaluated on day 5, higher T/C = longer survival); 111, 112, 116 % of control [9 of 10 alive] (T/C endpoint: median survival time, dose: 4.0 mg/kg/injection, schedule: Q01DX009 (ip), vehicle: saline, evaluated on day 60, higher T/C = longer survival); 100 % of control (T/C endpoint: median survival time, dose: 8.0 mg/kg/injection, schedule: Q01DX009 (ip), vehicle: saline, evaluated on day 5, higher T/C = longer survival); 100, 121, 127 % of control (T/C endpoint: median survival time, dose: 8.0 mg/kg/injection, schedule: Q01DX009 (ip), vehicle: saline, evaluated on day 60, higher T/C = longer survival). The T/C was 127 % of control (T/C endpoint: median survival time, dose: 8.0 mg/kg/injection, schedule: Q01DX009 (ip), vehicle: water, higher T/C = longer survival); 135 % of control (T/C endpoint: median survival time, dose: 13.3 mg/kg/injection, schedule: Q01DX009 (ip), vehicle: water, higher T/C = longer survival); 142 % of control (T/C endpoint: median survival time, dose: 15.0 mg/kg/injection, schedule: Q01DX010 (ip), vehicle: water, higher T/C = longer survival); 125 % of control (T/C endpoint: median survival time, dose: 16.0 mg/kg/injection, schedule: Q01DX009 (ip), vehicle: saline, higher T/C = longer survival); 142 % of control (T/C endpoint: median survival time, dose: 22.5 mg/kg/injection, schedule: Q01DX010 (ip), vehicle: water, higher T/C = longer survival); 128 % of control under setting [3]. Further, the survivor count is, setting by setting: (T/C endpoint: median survival time, dose: 16.0 mg/kg/injection, schedule: Q01DX009 (ip), vehicle: water, higher T/C = longer survival) 10 of 10 (2×); under setting [3], 10 of 10 and 8 of 8; (T/C endpoint: median survival time, dose: 32.0 mg/kg/injection, schedule: Q01DX009 (ip), vehicle: water, higher T/C = longer survival) 10 of 10 (2×); (T/C endpoint: median tumor weight (est.), dose: 16.0 mg/kg/injection, schedule: Q01DX009 (ip), vehicle: water, higher T/C = larger tumour) 5 of 10 on day 14; (T/C endpoint: median tumor weight (est.), dose: 32.0 mg/kg/injection, schedule: Q01DX009 (ip), vehicle: saline, higher T/C = larger tumour) 4 of 10; (T/C endpoint: median tumor weight (est.), dose: 32.0 mg/kg/injection, schedule: Q01DX009 (ip), vehicle: water, higher T/C = larger tumour) 0 of 10 on day 14.

As to `CN(C)CC(Cl)CCl` (centres undefined), the survivor count (T/C endpoint: median survival time, dose: 400.0 mg/kg/injection, schedule: Q01DX009 (ip), vehicle: saline, higher T/C = longer survival) is 7 of 10.

`O=C(NP(=O)(N1CC1)N1CC1)c1cc(I)ccc1I`: the survivor count is given as 9 of 10 (T/C endpoint: median survival time, dose: 128.0 mg/kg/injection, schedule: Q02DX009 (ip), vehicle: saline with Tween-80, higher T/C = longer survival); 10 of 10 (T/C endpoint: median survival time, dose: 256.0 mg/kg/injection, schedule: Q02DX009 (ip), vehicle: saline with Tween-80, higher T/C = longer survival); 10 of 10 (T/C endpoint: median survival time, dose: 512.0 mg/kg/injection, schedule: Q02DX009 (ip), vehicle: saline with Tween-80, higher T/C = longer survival).

As to `N=C(N)N`, under “T/C endpoint: mean tumor weight, dose: 50.0 mg/kg/injection, schedule: Q01DX011 (ip), vehicle: saline, evaluated on day 12, higher T/C = larger tumour”, the T/C is 134 % of control. The survivor count (T/C endpoint: mean tumor weight, dose: 400.0 mg/kg/injection, schedule: Q01DX011 (ip), vehicle: saline, higher T/C = larger tumour) was 1 of 6.

Turning to `CC(=O)CC(C)(C)N`, the T/C (T/C endpoint: mean tumor weight, dose: 22.0 mg/kg/injection, schedule: Q01DX011 (ip), vehicle: saline, evaluated on day 12, higher T/C = larger tumour) was 138 % of control. Under “T/C endpoint: mean tumor weight, dose: 150.0 mg/kg/injection, schedule: Q01DX011 (ip), vehicle: methylcellulose (MC), higher T/C = larger tumour”, the survivor count is given as 3 of 6.

In the case of `CN(CCCOS(C)(=O)=O)CCCOS(C)(=O)=O`, under “T/C endpoint: mean tumor weight, dose: 80.0 mg/kg/injection, schedule: Q01DX011 (ip), vehicle: saline, higher T/C = larger tumour”, the survivor count was 3 of 6.
